Laboratory results as given in the supplement of paper PMC6078165.

Test system: Hs578T
Assay: relative JC-1 red fluorescence (viability) vs pre-drug, coculture with fibroblast (fraction); higher = more viable cancer cells
Experimental: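 JC-1 labelled TNBC cells cocultured 1:1 (1,500 cells each) with CellTrace Violet stained primary or stromal fibroblasts in 384-well plates in FluoroBrite medium, treated with one of 42 anticancer drugs at 0.1, 1, 10 or 100 uM. JC-1 red fluorescence (mitochondrial integrity in cancer cells only) was read by plate reader every 8 h for 72 h. Values are normalised to each well's pre-drug value. The stock of one drug was tenfold lower, so its dose labels may be too high.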

CO[C@H]1C[C@@H]2CC[C@@H](C)[C@@](O)(O2)C(=O)C(=O)N2CCCC[C@H]2C(=O)O[C@H]([C@H](C)C[C@@H]2CC[C@@H](OCCO)[C@H](OC)C2)CC(=O)[C@H](C)/C=C(\C)[C@@H](O)[C@@H](OC)C(=O)[C@H](C)C[C@H](C)/C=C/C=C/C=C/1C [Everolimus]
relative JC-1 red fluorescence
Details	8 h	16 h	24 h	32 h	40 h	48 h	56 h	64 h	72 h
0.1 µM	0.9302	0.806	0.7109	0.664	0.589	0.545	0.516	0.473	0.463
1 µM	0.918	0.818	0.761	0.721	0.653	0.609	0.59	0.554	0.544
10 µM	0.853	0.9	0.966	0.9295	0.858	0.8073	0.7884	0.7414	0.728
100 µM	0.948	0.933	0.856	0.871	0.785	0.821	0.724	0.755	0.746

relative JC-1 red fluorescence
Details	8 h	16 h	24 h	32 h	40 h	48 h	56 h	64 h	72 h
0.1 µM, coculture fibroblast: C12385	0.8189	0.688	0.676	0.596	0.544	0.519	0.499	0.5	0.505
0.1 µM, coculture fibroblast: H6013	0.837	0.769	0.712	0.689	0.643	0.635	0.617	0.614	0.593
0.1 µM, coculture fibroblast: H6019	0.77	0.684	0.648	0.563	0.531	0.5099	0.4916	0.4811	0.4651
0.1 µM, coculture fibroblast: H6076	0.8619	0.783	0.7472	0.7369	0.703	0.701	0.691	0.698	0.707
0.1 µM, coculture fibroblast: H6231	0.873	0.738	0.687	0.647	0.59	0.568	0.529	0.515	0.504
0.1 µM, coculture fibroblast: HADF	0.891	0.7958	0.725	0.676	0.638	0.615	0.584	0.575	0.546
0.1 µM, coculture fibroblast: HCFa	0.833	0.752	0.7	0.646	0.588	0.577	0.552	0.539	0.51
0.1 µM, coculture fibroblast: HCPF	0.888	0.786	0.736	0.709	0.6532	0.6341	0.6194	0.592	0.5861
0.1 µM, coculture fibroblast: HHSteC	0.8607	0.754	0.71	0.66	0.615	0.589	0.575	0.556	0.532
0.1 µM, coculture fibroblast: HMF	0.881	0.776	0.709	0.6902	0.626	0.6036	0.571	0.548	0.539
0.1 µM, coculture fibroblast: HPFa	0.883	0.7477	0.681	0.611	0.556	0.522	0.482	0.468	0.431
0.1 µM, coculture fibroblast: HUF	0.883	0.746	0.735	0.653	0.601	0.568	0.544	0.543	0.532
0.1 µM, coculture fibroblast: Hs27A	0.8655	0.796	0.748	0.7127	0.6663	0.6693	0.647	0.6445	0.609
0.1 µM, coculture fibroblast: Hs343T	0.923	0.80807	0.749	0.723	0.657	0.635	0.596	0.578	0.575
0.1 µM, coculture fibroblast: WS1	0.807	0.684	0.648	0.552	0.499	0.488	0.466	0.468	0.476
1 µM, coculture fibroblast: C12385	0.8477	0.7814	0.699	0.62	0.557	0.522	0.496	0.483	0.477
1 µM, coculture fibroblast: H6013	0.918	0.8455	0.789	0.749	0.687	0.664	0.634	0.632	0.607
1 µM, coculture fibroblast: H6019	0.77419	0.69	0.7153	0.637	0.632	0.618	0.602	0.599	0.592
1 µM, coculture fibroblast: H6076	0.8631	0.8002	0.7504	0.7483	0.7075	0.715	0.7062	0.7015	0.713
1 µM, coculture fibroblast: H6231	0.874	0.8	0.684	0.661	0.598	0.57368	0.539	0.517	0.51
1 µM, coculture fibroblast: HADF	0.899	0.852	0.784	0.74	0.708	0.695	0.668	0.664	0.641
1 µM, coculture fibroblast: HCFa	0.859	0.779	0.732	0.692	0.634	0.617	0.584	0.566	0.533
1 µM, coculture fibroblast: HCPF	0.849	0.775	0.731	0.717	0.668	0.651	0.642	0.6092	0.6014
1 µM, coculture fibroblast: HHSteC	0.956	0.874	0.785	0.729	0.663	0.629	0.603	0.578	0.539
1 µM, coculture fibroblast: HMF	0.822	0.746	0.725	0.737	0.68	0.667	0.647	0.632	0.629
1 µM, coculture fibroblast: HPFa	0.966	0.936	0.838	0.788	0.744	0.721	0.676	0.655	0.621
1 µM, coculture fibroblast: HUF	0.8475	0.755	0.678	0.586	0.527	0.492	0.458	0.446	0.439
1 µM, coculture fibroblast: Hs27A	0.89	0.85	0.785	0.753	0.7	0.685	0.655	0.648	0.61
1 µM, coculture fibroblast: Hs343T	0.925	0.8521	0.771	0.759	0.687	0.662	0.621	0.61	0.6
1 µM, coculture fibroblast: WS1	0.7995	0.684	0.651	0.56	0.5078	0.49	0.4718	0.4705	0.4732
10 µM, coculture fibroblast: C12385	0.848	0.853	0.825	0.81965	0.7801	0.7451	0.715	0.685	0.6754
10 µM, coculture fibroblast: H6013	0.928	0.976	0.957	0.9396	0.89	0.874	0.85	0.843	0.806
10 µM, coculture fibroblast: H6019	0.801	0.783	0.801	0.746	0.74	0.743	0.735	0.729	0.716
10 µM, coculture fibroblast: H6076	0.9694	0.968	0.979	0.984	0.965	0.971	0.945	0.942	0.9377
10 µM, coculture fibroblast: H6231	0.809	0.857	0.852	0.972	0.922	0.911	0.8617	0.8421	0.823
10 µM, coculture fibroblast: HADF	0.935	0.965	0.9356	0.9068	0.872	0.842	0.809	0.7886	0.7594
10 µM, coculture fibroblast: HCFa	0.934	0.927	0.906	0.868	0.808	0.791	0.769	0.746	0.72
10 µM, coculture fibroblast: HCPF	0.934	0.905	0.9225	0.903	0.858	0.847	0.823	0.787	0.756
10 µM, coculture fibroblast: HHSteC	0.96	0.865	0.894	0.874	0.9605	0.9535	0.9422	0.9315	0.901
10 µM, coculture fibroblast: HMF	0.9541	0.9552	0.9479	0.948	0.8865	0.8697	0.842	0.819	0.802
10 µM, coculture fibroblast: HPFa	0.919	0.936	0.90599	0.866	0.82	0.79	0.756	0.736	0.702
10 µM, coculture fibroblast: HUF	0.869	0.826	0.8518	0.7772	0.732	0.698	0.667	0.663	0.653
10 µM, coculture fibroblast: Hs27A	0.9395	0.9714	0.928	0.849	0.96	0.966	0.953	0.959	0.921
10 µM, coculture fibroblast: Hs343T	0.9357	0.938	0.953	0.9515	0.887	0.87	0.82	0.797	0.777
10 µM, coculture fibroblast: WS1	0.859	0.851	0.8331	0.78663	0.739	0.729	0.7	0.689	0.678
100 µM, coculture fibroblast: C12385	0.831	0.826	0.737	0.551	0.431	0.347	0.301	0.283	0.287
100 µM, coculture fibroblast: H6013	0.838	0.925	0.91	0.73	0.597	0.5263	0.48	0.492	0.498
100 µM, coculture fibroblast: H6019	0.8509	0.794	0.658	0.497	0.404	0.337	0.327	0.351	0.364
100 µM, coculture fibroblast: H6076	0.959	0.966	0.876	0.919	0.867	0.828	0.8817	0.827	0.877
100 µM, coculture fibroblast: H6231	0.888	0.811	0.813	0.876	0.767	0.728	0.709	0.764	0.81
100 µM, coculture fibroblast: HADF	0.9966	0.882	0.829	0.877	0.729	0.648	0.585	0.61	0.603
100 µM, coculture fibroblast: HCFa	0.883	0.877	0.778	0.846	0.65	0.566	0.516	0.556	0.546
100 µM, coculture fibroblast: HCPF	0.797	0.787	0.75	0.678	0.612	0.586	0.584	0.559	0.553
100 µM, coculture fibroblast: HHSteC	0.895	0.896	0.725	0.501	0.375	0.35	0.368	0.375	0.357
100 µM, coculture fibroblast: HMF	0.7995	0.598	0.584	0.571	0.572	0.579	0.581	0.576	0.573
100 µM, coculture fibroblast: HPFa	0.833	0.911	0.75	0.749	0.652	0.643	0.687	0.731	0.714
100 µM, coculture fibroblast: HUF	0.914	0.867	0.743	0.529	0.411	0.37	0.36	0.37	0.368
100 µM, coculture fibroblast: Hs27A	0.775	0.835	0.894	0.764	0.775	0.679	0.61	0.58	0.558
100 µM, coculture fibroblast: Hs343T	0.901	0.861	0.717	0.74	0.767	0.786	0.759	0.732	0.73
100 µM, coculture fibroblast: WS1	0.83	0.808	0.524	0.3893	0.305	0.262	0.2387	0.2524	0.2646

Values are relative to the signal before dosing, not to a vehicle control; the signal also falls without drug.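 Fibroblast labels name human fibroblasts: mostly primary ones from tissues such as uterus (C12385, HUF), lung (H6013), bone (Hs27A), adrenal (HADF) and skin (WS1), plus mammary HMF and breast cancer-associated Hs343T. The cancer cells are basal-like or mesenchymal-like triple-negative breast cancer lines. The paper calls a changed response a hit when it shifts by more than 3x the replicate standard deviation. The tissue of the other fibroblasts is not given here.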
